The list shows a part of the results.
compound: COc1ccc(Cn2ccc3cc(C)c(C(=O)NO)cc32)cc1; assay: dose-dependent thermal stabilisation call (2D-TPP, DLPTP, 10% FDR) (binary (1 = stabilised)); higher = stabilised by the compound; conditions: system: HL-60 intact cells; concentration range 0.04-10 µM
Protocol: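 2D thermal proteome profiling in intact HL-60 cells treated with BRD-3811 (0, 0.04, 0.29, 2, 10 uM) for 90 min at 37 C, then heated 3 min at one of 12 temperatures (42-63.9 C). Soluble protein was quantified by TMT10 MS. The value is the DLPTP call of the paper: dose-dependent thermal stabilisation over all temperatures at 10% FDR (F-test of a dose-response against a flat model); one experiment, one call per tested protein.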

Amino acid sequences for entries named in this document (tags omitted). A change or cut given only in a name is not applied to a line headed by its entry.
UniProt Q16401: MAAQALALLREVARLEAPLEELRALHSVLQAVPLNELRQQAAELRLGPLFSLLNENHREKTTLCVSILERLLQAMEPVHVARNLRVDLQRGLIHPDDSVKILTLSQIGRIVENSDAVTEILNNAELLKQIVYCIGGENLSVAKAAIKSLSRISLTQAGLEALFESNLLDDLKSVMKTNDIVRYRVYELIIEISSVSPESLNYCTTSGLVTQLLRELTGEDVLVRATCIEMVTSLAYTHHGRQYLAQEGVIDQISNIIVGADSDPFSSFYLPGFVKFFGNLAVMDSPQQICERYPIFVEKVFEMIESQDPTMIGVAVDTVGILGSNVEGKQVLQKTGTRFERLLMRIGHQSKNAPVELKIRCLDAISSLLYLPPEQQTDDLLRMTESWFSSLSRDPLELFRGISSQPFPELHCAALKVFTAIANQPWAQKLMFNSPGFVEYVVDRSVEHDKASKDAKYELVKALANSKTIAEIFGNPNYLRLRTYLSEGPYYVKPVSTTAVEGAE
UniProt Q07864, whole entry: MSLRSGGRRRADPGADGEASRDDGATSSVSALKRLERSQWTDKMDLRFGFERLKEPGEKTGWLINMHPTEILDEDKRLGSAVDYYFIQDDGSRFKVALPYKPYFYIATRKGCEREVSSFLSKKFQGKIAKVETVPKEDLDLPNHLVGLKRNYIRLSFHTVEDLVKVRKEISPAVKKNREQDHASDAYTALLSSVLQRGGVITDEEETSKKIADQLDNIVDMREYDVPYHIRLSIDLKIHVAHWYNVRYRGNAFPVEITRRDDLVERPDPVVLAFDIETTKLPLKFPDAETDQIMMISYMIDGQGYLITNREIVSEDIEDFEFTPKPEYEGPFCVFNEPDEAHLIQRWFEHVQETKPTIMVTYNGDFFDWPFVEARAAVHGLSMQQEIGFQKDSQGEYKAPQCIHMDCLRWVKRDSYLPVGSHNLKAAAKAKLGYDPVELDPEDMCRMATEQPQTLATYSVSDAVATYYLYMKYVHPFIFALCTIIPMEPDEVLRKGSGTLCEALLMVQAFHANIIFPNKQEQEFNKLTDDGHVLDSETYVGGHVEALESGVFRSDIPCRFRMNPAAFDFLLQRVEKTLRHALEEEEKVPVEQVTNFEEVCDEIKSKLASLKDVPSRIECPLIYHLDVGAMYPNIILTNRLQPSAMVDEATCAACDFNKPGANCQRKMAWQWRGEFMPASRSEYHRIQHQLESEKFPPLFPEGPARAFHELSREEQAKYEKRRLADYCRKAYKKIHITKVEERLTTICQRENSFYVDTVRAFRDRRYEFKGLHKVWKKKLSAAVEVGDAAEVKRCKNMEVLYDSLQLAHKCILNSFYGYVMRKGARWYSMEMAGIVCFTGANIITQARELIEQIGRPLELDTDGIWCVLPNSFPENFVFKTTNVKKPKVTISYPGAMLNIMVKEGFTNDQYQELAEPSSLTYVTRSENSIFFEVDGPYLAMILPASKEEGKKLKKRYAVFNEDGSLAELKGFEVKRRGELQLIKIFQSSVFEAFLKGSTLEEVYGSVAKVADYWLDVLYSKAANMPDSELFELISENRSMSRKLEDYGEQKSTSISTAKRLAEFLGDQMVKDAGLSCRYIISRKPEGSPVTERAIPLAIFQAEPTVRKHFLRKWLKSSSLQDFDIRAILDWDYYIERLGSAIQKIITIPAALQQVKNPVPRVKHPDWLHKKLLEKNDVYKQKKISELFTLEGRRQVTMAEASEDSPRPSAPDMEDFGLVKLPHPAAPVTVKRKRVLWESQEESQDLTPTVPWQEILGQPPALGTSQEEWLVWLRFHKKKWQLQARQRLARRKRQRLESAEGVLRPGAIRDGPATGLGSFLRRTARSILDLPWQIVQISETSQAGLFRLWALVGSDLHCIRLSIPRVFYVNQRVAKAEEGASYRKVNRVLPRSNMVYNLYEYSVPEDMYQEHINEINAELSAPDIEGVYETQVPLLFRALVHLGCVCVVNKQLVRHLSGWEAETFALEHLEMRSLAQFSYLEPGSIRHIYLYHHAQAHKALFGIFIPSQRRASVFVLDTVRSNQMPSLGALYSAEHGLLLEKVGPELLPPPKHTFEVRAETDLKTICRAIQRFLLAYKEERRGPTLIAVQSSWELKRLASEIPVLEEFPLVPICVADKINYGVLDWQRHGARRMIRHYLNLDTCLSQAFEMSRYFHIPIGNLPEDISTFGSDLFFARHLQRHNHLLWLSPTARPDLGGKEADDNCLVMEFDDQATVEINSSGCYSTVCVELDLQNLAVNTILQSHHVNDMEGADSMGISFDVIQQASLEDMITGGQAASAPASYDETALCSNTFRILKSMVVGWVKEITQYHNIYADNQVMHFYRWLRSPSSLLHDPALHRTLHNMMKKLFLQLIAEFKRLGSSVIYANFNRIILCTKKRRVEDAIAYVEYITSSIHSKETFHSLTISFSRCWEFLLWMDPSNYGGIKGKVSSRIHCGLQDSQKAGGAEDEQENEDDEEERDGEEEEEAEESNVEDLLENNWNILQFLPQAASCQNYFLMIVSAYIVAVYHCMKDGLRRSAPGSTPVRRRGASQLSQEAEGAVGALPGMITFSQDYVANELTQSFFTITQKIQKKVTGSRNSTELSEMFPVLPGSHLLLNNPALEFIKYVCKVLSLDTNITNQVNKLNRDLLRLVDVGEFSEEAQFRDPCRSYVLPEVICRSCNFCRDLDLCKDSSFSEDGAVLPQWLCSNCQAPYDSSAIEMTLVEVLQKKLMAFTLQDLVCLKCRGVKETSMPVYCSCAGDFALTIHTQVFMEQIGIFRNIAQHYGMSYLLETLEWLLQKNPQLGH
UniProt Q06830: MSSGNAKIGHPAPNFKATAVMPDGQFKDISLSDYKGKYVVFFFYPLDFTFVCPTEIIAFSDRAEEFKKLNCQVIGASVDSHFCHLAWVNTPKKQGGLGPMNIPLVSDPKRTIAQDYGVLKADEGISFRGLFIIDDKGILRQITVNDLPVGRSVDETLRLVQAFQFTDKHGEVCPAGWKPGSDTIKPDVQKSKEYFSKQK
UniProt A8CG34, whole entry: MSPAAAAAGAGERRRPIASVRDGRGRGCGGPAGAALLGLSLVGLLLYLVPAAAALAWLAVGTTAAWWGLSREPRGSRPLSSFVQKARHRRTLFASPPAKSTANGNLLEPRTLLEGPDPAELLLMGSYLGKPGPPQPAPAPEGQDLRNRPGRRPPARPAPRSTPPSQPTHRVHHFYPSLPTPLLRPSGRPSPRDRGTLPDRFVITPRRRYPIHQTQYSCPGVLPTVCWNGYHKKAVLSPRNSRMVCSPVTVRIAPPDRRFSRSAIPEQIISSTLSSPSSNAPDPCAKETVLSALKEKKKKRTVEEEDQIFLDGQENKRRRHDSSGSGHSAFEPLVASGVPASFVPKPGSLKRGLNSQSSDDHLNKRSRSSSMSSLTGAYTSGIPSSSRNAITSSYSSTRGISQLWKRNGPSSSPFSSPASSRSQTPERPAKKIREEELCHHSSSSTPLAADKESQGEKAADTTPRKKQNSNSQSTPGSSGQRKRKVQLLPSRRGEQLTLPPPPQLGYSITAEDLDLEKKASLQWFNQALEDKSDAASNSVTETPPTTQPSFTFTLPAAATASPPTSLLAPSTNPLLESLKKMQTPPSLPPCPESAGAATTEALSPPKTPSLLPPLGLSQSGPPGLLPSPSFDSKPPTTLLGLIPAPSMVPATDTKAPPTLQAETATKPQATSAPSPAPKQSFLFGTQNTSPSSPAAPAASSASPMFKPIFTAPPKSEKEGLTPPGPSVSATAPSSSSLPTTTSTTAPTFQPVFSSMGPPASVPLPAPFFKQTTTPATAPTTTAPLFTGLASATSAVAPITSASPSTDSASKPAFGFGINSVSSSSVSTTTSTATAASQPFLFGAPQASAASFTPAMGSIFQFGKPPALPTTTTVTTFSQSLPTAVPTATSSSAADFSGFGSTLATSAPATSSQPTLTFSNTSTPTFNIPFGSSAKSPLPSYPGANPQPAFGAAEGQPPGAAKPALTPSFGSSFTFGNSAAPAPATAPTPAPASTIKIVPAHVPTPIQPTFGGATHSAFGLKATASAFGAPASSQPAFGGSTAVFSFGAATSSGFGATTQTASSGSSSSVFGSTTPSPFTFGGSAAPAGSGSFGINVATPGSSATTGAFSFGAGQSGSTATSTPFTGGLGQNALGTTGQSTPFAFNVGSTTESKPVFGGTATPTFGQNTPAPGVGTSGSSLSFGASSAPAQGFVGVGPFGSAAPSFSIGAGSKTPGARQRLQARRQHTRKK
UniProt O60256: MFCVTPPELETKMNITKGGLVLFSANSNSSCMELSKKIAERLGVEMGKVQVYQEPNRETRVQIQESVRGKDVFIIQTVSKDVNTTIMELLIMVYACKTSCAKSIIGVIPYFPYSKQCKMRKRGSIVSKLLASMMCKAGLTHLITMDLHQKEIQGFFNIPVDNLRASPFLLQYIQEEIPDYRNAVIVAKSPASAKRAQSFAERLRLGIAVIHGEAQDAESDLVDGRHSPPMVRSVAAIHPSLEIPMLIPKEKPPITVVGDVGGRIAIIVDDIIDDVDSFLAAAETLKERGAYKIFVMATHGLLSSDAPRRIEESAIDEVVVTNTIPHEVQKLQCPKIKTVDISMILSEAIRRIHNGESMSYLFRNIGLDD
UniProt Q9NUX5: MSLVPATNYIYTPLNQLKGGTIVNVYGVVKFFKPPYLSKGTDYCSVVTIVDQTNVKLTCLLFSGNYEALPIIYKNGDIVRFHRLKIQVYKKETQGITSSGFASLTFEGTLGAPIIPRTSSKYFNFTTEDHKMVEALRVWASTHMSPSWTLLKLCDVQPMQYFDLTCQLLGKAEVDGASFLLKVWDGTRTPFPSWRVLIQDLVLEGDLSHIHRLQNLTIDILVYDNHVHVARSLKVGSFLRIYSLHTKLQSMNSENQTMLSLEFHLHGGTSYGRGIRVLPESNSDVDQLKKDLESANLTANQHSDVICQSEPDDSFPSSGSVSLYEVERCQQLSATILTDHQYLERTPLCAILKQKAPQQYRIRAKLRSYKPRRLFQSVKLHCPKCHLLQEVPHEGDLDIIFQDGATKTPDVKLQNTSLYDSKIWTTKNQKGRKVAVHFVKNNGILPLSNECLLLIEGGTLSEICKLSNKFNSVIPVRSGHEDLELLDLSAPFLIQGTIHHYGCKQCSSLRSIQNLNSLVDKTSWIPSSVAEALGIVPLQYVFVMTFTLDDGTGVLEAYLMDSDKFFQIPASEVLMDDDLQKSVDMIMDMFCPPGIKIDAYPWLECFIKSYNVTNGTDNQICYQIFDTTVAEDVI
UniProt Q92871: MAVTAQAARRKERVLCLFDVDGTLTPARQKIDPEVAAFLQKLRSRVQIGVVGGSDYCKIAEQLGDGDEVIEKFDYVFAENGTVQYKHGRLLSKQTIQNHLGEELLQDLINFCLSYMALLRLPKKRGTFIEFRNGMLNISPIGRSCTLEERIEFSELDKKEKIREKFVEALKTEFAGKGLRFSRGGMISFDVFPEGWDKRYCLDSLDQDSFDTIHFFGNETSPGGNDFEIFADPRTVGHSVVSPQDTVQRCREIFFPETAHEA
UniProt P06454: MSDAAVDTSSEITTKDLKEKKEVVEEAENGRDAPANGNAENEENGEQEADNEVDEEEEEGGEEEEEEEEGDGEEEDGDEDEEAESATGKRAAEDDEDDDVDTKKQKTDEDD
UniProt P28066: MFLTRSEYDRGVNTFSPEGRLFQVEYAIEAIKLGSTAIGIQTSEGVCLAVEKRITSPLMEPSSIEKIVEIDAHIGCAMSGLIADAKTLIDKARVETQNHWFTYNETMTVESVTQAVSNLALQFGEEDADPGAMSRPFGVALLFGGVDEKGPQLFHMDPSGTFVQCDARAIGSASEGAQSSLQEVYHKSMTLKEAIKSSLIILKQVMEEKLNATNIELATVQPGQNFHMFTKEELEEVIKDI
UniProt O43422: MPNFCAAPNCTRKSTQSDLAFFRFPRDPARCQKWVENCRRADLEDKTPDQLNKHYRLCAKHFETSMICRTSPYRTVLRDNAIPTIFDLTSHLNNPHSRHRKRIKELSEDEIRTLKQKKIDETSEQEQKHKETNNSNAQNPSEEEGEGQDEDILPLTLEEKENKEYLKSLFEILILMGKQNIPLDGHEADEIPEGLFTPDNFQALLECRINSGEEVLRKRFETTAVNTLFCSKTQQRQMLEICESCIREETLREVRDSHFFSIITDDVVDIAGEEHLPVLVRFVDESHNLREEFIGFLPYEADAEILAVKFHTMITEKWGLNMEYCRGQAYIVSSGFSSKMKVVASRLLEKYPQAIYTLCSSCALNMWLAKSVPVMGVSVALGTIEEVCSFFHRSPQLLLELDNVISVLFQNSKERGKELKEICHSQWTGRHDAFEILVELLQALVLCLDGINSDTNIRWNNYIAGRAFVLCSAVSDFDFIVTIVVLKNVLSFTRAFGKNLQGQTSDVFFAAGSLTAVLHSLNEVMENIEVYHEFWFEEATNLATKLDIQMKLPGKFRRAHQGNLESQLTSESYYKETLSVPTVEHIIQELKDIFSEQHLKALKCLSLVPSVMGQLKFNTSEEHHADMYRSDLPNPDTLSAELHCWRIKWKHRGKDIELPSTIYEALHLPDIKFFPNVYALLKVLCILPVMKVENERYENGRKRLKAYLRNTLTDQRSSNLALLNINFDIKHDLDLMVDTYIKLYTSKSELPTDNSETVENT

Row | Target | dose-dependent thermal stabilisation call
1 | PPIA (UniProt P62937) | inactive: 0
2 | PTPMT1 (UniProt Q8WUK0) | inactive: 0
3 | PSMD5 (UniProt Q16401) | inactive: 0
4 | PSIP1 (UniProt O75475) | inactive: 0
5 | POLE (UniProt Q07864) | inactive: 0
6 | PML (UniProt P29590) | inactive: 0
7 | PPM1A (UniProt P35813) | inactive: 0
8 | PRDX1 (UniProt Q06830) | inactive: 0
9 | PPP1R7 (UniProt Q15435) | inactive: 0
10 | POP7 (UniProt O75817) | inactive: 0
11 | POM121C (UniProt A8CG34) | inactive: 0
12 | POLR2C (UniProt P19387) | inactive: 0
13 | PSMD1 (UniProt Q99460) | inactive: 0
14 | PRPSAP2 (UniProt O60256) | inactive: 0
15 | POR (UniProt P16435) | inactive: 0
16 | POLR1A (UniProt O95602) | inactive: 0
17 | PSMB3 (UniProt P49720) | inactive: 0
18 | PRKAG1 (UniProt P54619) | inactive: 0
19 | PSMD12 (UniProt O00232) | inactive: 0
20 | PRMT1 (UniProt Q99873) | inactive: 0

Given tab-delimited: part of the list above.
Row	Target	dose-dependent thermal stabilisation call
1	PPIA (UniProt P62937)	inactive: 0
7	PPM1A (UniProt P35813)	inactive: 0

Additional records

Row | Target | dose-dependent thermal stabilisation call
21 | POT1 (UniProt Q9NUX5) | inactive: 0
22 | POLB (UniProt P06746) | inactive: 0
23 | PSMA6 (UniProt P60900) | inactive: 0
24 | POLR1B (UniProt Q9H9Y6) | inactive: 0
25 | PMM1 (UniProt Q92871) | inactive: 0
26 | POLR1E (UniProt Q9GZS1) | inactive: 0
27 | PTMA (UniProt P06454) | inactive: 0
28 | PNPLA6 (UniProt Q8IY17) | inactive: 0
29 | PMS1 (UniProt P54277) | inactive: 0
30 | POP4 (UniProt O95707) | inactive: 0
31 | PRKAR2A (UniProt P13861) | inactive: 0
32 | PPHLN1 (UniProt Q8NEY8) | inactive: 0
33 | PRIM2 (UniProt P49643) | inactive: 0
34 | PPP1CB (UniProt P62140) | inactive: 0
35 | POLR2H (UniProt P52434) | inactive: 0
36 | PSMA5 (UniProt P28066) | inactive: 0
37 | PRKRIR (UniProt O43422) | inactive: 0
38 | PPP1R12A (UniProt O14974) | inactive: 0
39 | PPP2R1A (UniProt P30153) | inactive: 0
40 | PSD4 (UniProt Q8NDX1) | inactive: 0

— the supplement of paper PMC7666118
